The record followed here is publication PMC11712023.

By UniProt entry, the sequences of proteins in these tests, tags left out. Where a name states a change or a piece, a line headed by the entry shows the natural chain unless it says otherwise.
UniProt Q9SW41: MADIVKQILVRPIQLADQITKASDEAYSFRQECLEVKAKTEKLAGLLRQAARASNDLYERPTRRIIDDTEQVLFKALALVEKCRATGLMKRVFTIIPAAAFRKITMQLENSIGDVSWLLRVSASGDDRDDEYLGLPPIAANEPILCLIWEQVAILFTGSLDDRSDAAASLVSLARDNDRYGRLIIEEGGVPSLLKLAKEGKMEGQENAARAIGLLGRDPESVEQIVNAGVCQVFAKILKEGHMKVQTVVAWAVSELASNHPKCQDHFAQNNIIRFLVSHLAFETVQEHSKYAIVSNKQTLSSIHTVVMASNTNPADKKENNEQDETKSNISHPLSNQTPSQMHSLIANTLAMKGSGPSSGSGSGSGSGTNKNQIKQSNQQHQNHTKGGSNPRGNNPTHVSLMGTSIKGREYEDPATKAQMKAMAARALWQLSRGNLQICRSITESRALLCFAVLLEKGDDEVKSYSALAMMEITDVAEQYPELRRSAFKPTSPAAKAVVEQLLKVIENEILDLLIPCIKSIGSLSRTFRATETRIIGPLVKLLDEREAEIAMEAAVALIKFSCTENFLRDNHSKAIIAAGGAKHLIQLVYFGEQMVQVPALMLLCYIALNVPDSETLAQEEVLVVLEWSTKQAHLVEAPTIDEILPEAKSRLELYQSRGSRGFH

No constants are given. Whether binding was seen depends on the method and setting. In cells and extracts the contact can be indirect. These calls come from enrichment with a bait or labelling near it, and not all partners need be listed.

The test deals with Arabidopsis thaliana VPS13a fused to Venus (AtVPS13a:Venus) (Arabidopsis thaliana). Kind of test: affinity purification with mass spectrometry; co-immunopurification (co-IP) of crude pollen proteins from the GT-AtVPS13a:Venus line; wild type as control; proteins uniquely detected in the AtVPS13a:Venus fraction listed.

Take “Armadillo Repeat Only1 (ARO1) (from UniProt Q9SW41)”: the binding entry is reported as “binds”.

B1: exocyst complex subunit SEC5B (protein, UniProt F4HWE6 1-1090)
chain: MSSSDDLDEDELLQMALKEQSQRDVTYQKPPSANSRKPVTNLVQQPRRQKRAAAPPSKGGAKASRKPSMDEDDESEVELLSISSGDEDEGNDRGRGGGGDGGGGRGRGGSGKERGRARKEDDRAWDGVEPDCWKRVNEAELARKVRDMRESRTAPSVTQNLDRKVSGADKKVVLTSLQSFPRGMECIDPLKLGIIDNKTLRLITESSESLSKAEKVDNALREKLVYTSDHFDPKLFISRIHQETSAADLESGALALKSDLKGRNLQRKQLVKDNFDCFVSCKTTIDDIESKLKRIEDDPDGSGTTHLFNCMKSVTSRANRAFEPLFERQAQAEKIRSVQGMLQRFRTLFNLPSIIRSSISKGEYDLAVREYKKAKSIALPSHVNLLKRVLEEVEKVMQEFKGTLYRSMEDPKIDFTSLENTVRLLLELEPESDPVWHYLNVQNHRIHGMLEKCTFDHEARMEILRNQVHERALSDAKWRQIQQNGVQLSDDTSSMEDNQVQVDQPLEESARREKDALRGRYIKILTAVIVYHLPTFWKTALSVFTGKFAKSSQVNDTSASKAEEKAEEARYSSHSLEEIAGMIRNTISVYEAKVQSTFHDFDESYILHPYMSDTIKEVSKACQAFEAKESAPHSAVMALRKVKVEITKIYIQRLCSWMRASTEEISKEETWIPVSILERNRSPYSISYLPLAFRSIIVSGMEQINMMILSLKGEAARSEDMFAHIEEILISVRLAFLNCFLDFAAHLEQIGADLSQRTTKRESWQNGYSNDHQEEQSINAPESVVDPHRQLLMILSNIGYCKDELASELYNKYKYTWLQSRRNDEDISDLQDLMMSFSGLGEKVLEHYTFAKANLIRTAATNYLLDSGIQWGAAPPVKGIRDAAVELLHTLVAVHAEVFAGAKPLLDKILGTLVEGLIDTFLSLLDENRSDDLSSIDANGFCQLMLELEYFETILKPYLTVDATESLKSLQGAVLEKAIESISETVENNPGGHQRKPTRGSEDAISDDKQSSVSPDDLLALAQQCTSGMLQLELEKTRLNSACFIETIPLDPVPPVAKAAYSRTSTDSPSRNYRESQPMGSPVQARPRRR
For the molecule B1, the binding result was “binds”.

B2: exocyst complex subunit SEC8 (protein, UniProt Q93YU5 1-1053)
chain: MGIFNGLPVPSDKTYLREELARIDESWAAARFDSLPHVVHILTSKDREADIHILKEQSDVVEEVVDEVVHAYHGGFNKAIQNYSQILRLFSESTEKIGDLKHDLAEAKQSLGARNKQLHQLWYRSVTLRHIISLLDQIEGIAKVPSRIEKLIADKQFYAAIQVYLQSSLMLEREGLQTVGALQDVRSELTKLRGALFFKILDDLHAHLYNRGEYSSVASSIYERDDEVPTTTAVAASRMSSQPLSRRTRTLKGDSQFGVRGLTNGSYRTASNDESSSFDGHDEEDSVEHDESTADTARNGTDSKLLSHQLPPWLSDSTPDEFIEAVRKSDDPLHVKYLQTLVQCLCMLGKVAAAGAIICQKLRPTIHEIIISKIKAHLETTNLSKSACSQGDRSVAAGLHLIKGQSEAYRLSKEKPQNGISNSGTHLAVSPVSPLMAPGGKAQAAAKELLDSILDTIVKIFENHVVIGELLEMKASQHDINTPRSLPTDVNWNTESEASQATGGYTISFPLTVLQSECQQLICEILRATPEAASADAAAQTAKLAKKAPKKDKRDAPEDGLTFTFRFTDATVSISNQGADLIRQGWGKRAPNASLEGYGSAAVLPEQGIYLAASIYRPVLQFTDKITSMLPKKHSQLVNDGLLTFTENFVKDHLLPTMFVDYRKGVQQAISSAAAFRPRAHTTTYTATVEKGRPILQGLLAIDLLAKEVLGWAQAMPKFATDLVKYVQTFLERTFERCRTSYMEAVLEKLSYMLIGRHDIEKLMRLDAASACLPSTLGHAVSHSEAVGTEVELSDLFLSLRPIKQDNLIRDDNKLILLASLSDSLEYVADSIERLGQAVPRVASQAEGNSRNQAASPRNLASFADEYRKLATDCLKVLRVEMQLETVFHLQEMTNREYLEDEDAEEPDDFVISLTSQITRREEGMAPFISGEKRNYVFGGISGIAANASIKALADMRSINLFGVQQICRNTIAVEQAMAAIPYIDGETVQQNLDRVRTYFELLNMPFEALLAFIAEHDQMFTPTEYSNLLKVNVPGRDTPSDAQSRLLEILSH
As to B2, the binding result was “binds”.
